In PubChem BioAssay AID330 (DTP/NCI, 2004):
The list is a part of this screen's results and no random one: it gathers tests that were run many times, whatever their T/C, doses with no T/C, and many T/C values between a quarter and a half above the control. Other doses and runs of a compound stand elsewhere. T/C gives the treated animals as a percentage of the vehicle group. Some entries give survivors of the animals treated and no T/C: the source holds a T/C of zero for them, seemingly a mark for toxic or unscored doses. Some survivor counts are full or nearly so, which does not show that the dose was tolerated: the source hardly ever lists a survival T/C far under the control, and the zero likely stands for such cases as well. Survivors were counted at the toxicity check, usually on the fifth day, unless a day is given; later deaths do not show. Schedules are NCI's codes, taken here to give the interval after Q, in days (D) or hours (H), and the number of doses after X. Some doses were run more than once; the values are given in rising order. Where survival is the endpoint, the PubChem record calls one and a half times the control and up active, and a quarter to a half above the control has no call in these data; cut-offs in other NCI protocols can differ.

System: P388 leukemia ip, CD2F1 mice, survival T/C
Assay: NCI In Vivo Anticancer Drug Screen. Data for tumor model P388 Leukemia (intraperitoneal) in CD2F1 (CDF1) mice
Details: T/C endpoint: median survival time, higher T/C = longer survival
[1] = dose: 100.0 mg/kg/injection, schedule: Q01DX009 (ip), vehicle: saline with Tween-80
[2] = dose: 200.0 mg/kg/injection, schedule: Q01DX009 (ip), vehicle: saline with Tween-80
[3] = dose: 60.0 mg/kg/injection, schedule: Q01DX005 (ip), vehicle: Klucel (hydroxypropylcellulose) (HPC)
[4] = dose: 120.0 mg/kg/injection, schedule: Q01DX005 (ip), vehicle: Klucel (hydroxypropylcellulose) (HPC)
[5] = dose: 240.0 mg/kg/injection, schedule: Q01DX005 (ip), vehicle: Klucel (hydroxypropylcellulose) (HPC)
[6] = dose: 100.0 mg/kg/injection, schedule: Q01DX005 (ip), vehicle: saline with Tween-80
[7] = dose: 25.0 mg/kg/injection, schedule: Q01DX009 (ip), vehicle: saline with Tween-80
[8] = dose: 50.0 mg/kg/injection, schedule: Q01DX009 (ip), vehicle: saline with Tween-80
[9] = dose: 100.0 mg/kg/injection, schedule: Q01DX009 (ip), vehicle: saline
[10] = dose: 50.0 mg/kg/injection, schedule: Q01DX001 (ip), vehicle: saline with Tween-80
[11] = dose: 400.0 mg/kg/injection, schedule: Q01DX001 (ip), vehicle: saline with Tween-80

COP1(=O)OC(C)=C(C)c2cccn21 (stereo not drawn)
survivor count (dose: 200.0 mg/kg/injection, schedule: Q04DX003 (ip), vehicle: saline with Tween-80): 6 of 6 | survivor count (dose: 400.0 mg/kg/injection, schedule: Q04DX003 (ip), vehicle: saline with Tween-80): 2 of 6

C[N+]1=C(/C=C/Nc2ccc3ccc4cccc5ccc2c3c45)C(C)(C)c2ccccc21
survivor count [1]: 5 of 6 | survivor count [2]: 0 of 6

COC(=O)c1cc(=O)n(-c2cccc(OC)c2)c(SC)n1
survivor count (dose: 200.0 mg/kg/injection, schedule: Q04DX002 (ip), vehicle: Klucel (hydroxypropylcellulose) (HPC)): 3 of 6 | survivor count (dose: 400.0 mg/kg/injection, schedule: Q04DX002 (ip), vehicle: Klucel (hydroxypropylcellulose) (HPC)): 0 of 6

CCn1c(Cl)c(/C=N/NC(N)=S)c2ccccc21
survivor count (dose: 400.0 mg/kg/injection, schedule: Q01DX001 (ip), vehicle: Klucel (hydroxypropylcellulose) (HPC)): 4 of 6

Nc1[nH]c(=S)[nH]c(=O)c1NS(=O)(=O)c1cccc([N+](=O)[O-])c1
T/C [3]: 141 % of control | T/C [4]: 133 % of control | T/C [5]: 136 % of control

O=C(NCc1cc(CNC(=O)c2cccc(O)c2O)cc(CNC(=O)c2cccc(O)c2O)c1)c1cccc(O)c1O
survivor count [6]: 4 of 5 | survivor count (dose: 200.0 mg/kg/injection, schedule: Q01DX005 (ip), vehicle: saline with Tween-80): 0 of 5

COc1ccc(C2OC3=C(Nc4ccc(Cl)cc4N3)C2=O)cc1 (stereo not drawn)
survivor count [3]: 6 of 6

O=S(=O)(OCCCl)C(F)(F)F
survivor count (dose: 6.25 mg/kg/injection, schedule: Q01DX009 (ip), vehicle: saline with Tween-80): 6 of 6 | survivor count (dose: 12.5 mg/kg/injection, schedule: Q01DX009 (ip), vehicle: saline with Tween-80): 1 of 6 | survivor count [7]: 0 of 6 | survivor count [8]: 0 of 6 | survivor count [1]: 0 of 6 | survivor count [2]: 0 of 6

CC1[C@@H]2CC=C3[C@H]4CCC5Cc6nc7c(nc6C[C@@]5(C)C4(O)CC(=O)[C@]32CO[C@]12OC(C)(C)CC2O)CC1CC[C@@H]2C3=C[C@H]4O[C@@]5(O[C@@](C)(CO)C[C@@H]5O)C(C)[C@@]4(O)[C@]3(C)[C@@H](O)CC2[C@]1(C)C7 (stereo partly drawn)
survivor count (dose: 0.06 mg/kg/injection, schedule: Q01DX009 (ip), vehicle: saline + alcohol): 6 of 6 | survivor count (dose: 0.12 mg/kg/injection, schedule: Q01DX009 (ip), vehicle: saline + alcohol): 3 of 6 | survivor count (dose: 0.25 mg/kg/injection, schedule: Q01DX009 (ip), vehicle: saline + alcohol): 0 of 6 | survivor count (dose: 0.5 mg/kg/injection, schedule: Q01DX009 (ip), vehicle: saline + alcohol): 0 of 5 | T/C (dose: 20.0 micrograms/kg/injection, schedule: Q01DX005 (ip), vehicle: saline + alcohol): 127 % of control | T/C (dose: 40.0 micrograms/kg/injection, schedule: Q01DX005 (ip), vehicle: saline + alcohol): 127 and 135 % of control | survivor count (dose: 80.0 micrograms/kg/injection, schedule: Q01DX005 (ip), vehicle: saline + alcohol): 2 of 6 and 6 of 6

CCOC(=O)NOP(=O)(N1CC1(C)C)N1CC1(C)C (stereo not drawn)
T/C (dose: 62.5 mg/kg/injection, schedule: Q01DX001 (ip), vehicle: other): 128 % of control | T/C (dose: 125.0 mg/kg/injection, schedule: Q01DX001 (ip), vehicle: other): 140 % of control

O=C1C=C(Nc2ccc(Br)cc2)C(Nc2ccc(Br)cc2)=CC1=O
survivor count (dose: 75.0 mg/kg/injection, schedule: Q01DX005 (ip), vehicle: saline with Tween-80): 6 of 6

NC(=S)NNC(=O)C(Cc1ccccc1)NC(=O)OCc1ccccc1 (stereo not drawn)
survivor count [1]: 3 of 6 | survivor count [2]: 0 of 6

CN(C)C/C=C(/c1ccc(Br)cc1)c1cccnc1
survivor count (dose: 50.0 mg/kg/injection, schedule: Q01DX009 (ip), vehicle: saline): 6 of 6 | survivor count [9]: 6 of 6 | survivor count (dose: 200.0 mg/kg/injection, schedule: Q01DX009 (ip), vehicle: saline): 0 of 6

O=NN(CCCl)C(=O)N1CCCOC1=O
survivor count (dose: 25.0 mg/kg/injection, schedule: Q01DX001 (ip), vehicle: saline with Tween-80): 5 of 6 | survivor count (dose: 25.0 mg/kg/injection, schedule: Q01DX005 (ip), vehicle: saline with Tween-80): 6 of 6 | T/C [10]: 135 % of control | survivor count [10]: 0 of 6 | survivor count (dose: 50.0 mg/kg/injection, schedule: Q01DX005 (ip), vehicle: saline with Tween-80): 1 of 6 | survivor count (dose: 100.0 mg/kg/injection, schedule: Q01DX001 (ip), vehicle: saline with Tween-80): 0 of 6 and 1 of 5 | survivor count [6]: 0 of 6 | survivor count (dose: 200.0 mg/kg/injection, schedule: Q01DX001 (ip), vehicle: saline with Tween-80): 0 of 5 | survivor count [11]: 0 of 5

O=C1NC2(CCCCC2)C(=O)N1CCCN(CCCl)CCCl
T/C (dose: 1.5 mg/kg/injection, schedule: Q01DX005 (ip), vehicle: saline): 142 % of control | T/C (dose: 3.0 mg/kg/injection, schedule: Q01DX005 (ip), vehicle: saline): 136 and 149 % of control | survivor count (dose: 24.0 mg/kg/injection, schedule: Q01DX005 (ip), vehicle: saline): 5 of 6

CCCCCC(/C=C/C1C(O[Si](C)(C)C(C)(C)C)CC(N(C)C)C1(C/C=C/CCCC#N)S(=O)(=O)c1ccccc1)O[Si](C)(C)C(C)(C)C (stereo not drawn)
survivor count [5]: 6 of 6

C[Si](C)(CCCNCCN)O[Si](C)(C)CCCNCCN
survivor count (dose: 120.0 mg/kg/injection, schedule: Q01DX005 (ip), vehicle: saline with Tween-80): 0 of 6 | survivor count (dose: 240.0 mg/kg/injection, schedule: Q01DX005 (ip), vehicle: saline with Tween-80): 0 of 6

C=C(C)C(=O)O[C@@H]1C/C(C)=C\[C@H](OC(C)=O)C[C@](C)(O)/C=C2/OC(=O)C(COC(C)=O)=C21
survivor count (dose: 22.0 mg/kg/injection, schedule: Q01DX005 (ip), vehicle: Klucel (hydroxypropylcellulose) (HPC)): 1 of 5 | survivor count (dose: 44.0 mg/kg/injection, schedule: Q01DX005 (ip), vehicle: Klucel (hydroxypropylcellulose) (HPC)): 0 of 5 and 6 of 6 | survivor count (dose: 88.0 mg/kg/injection, schedule: Q01DX005 (ip), vehicle: Klucel (hydroxypropylcellulose) (HPC)): 1 of 6 | survivor count (dose: 176.0 mg/kg/injection, schedule: Q01DX005 (ip), vehicle: Klucel (hydroxypropylcellulose) (HPC)): 0 of 6

CC(C)(O)/C=C/C(=O)[C@](C)(O)[C@H]1[C@H](O)C[C@@]2(C)[C@@H]3CC=C4[C@@H](C=C(O)C(=O)C4(C)C)[C@]3(C)C(=O)C[C@]12C
survivor count (dose: 2.0 mg/kg/injection, schedule: Q01DX010 (ip), vehicle: saline): 1 of 6 | survivor count (dose: 4.0 mg/kg/injection, schedule: Q01DX005 (ip), vehicle: water): 0 of 6 | survivor count (dose: 8.0 mg/kg/injection, schedule: Q01DX005 (ip), vehicle: water): 0 of 6

OC1OCCOC1O (stereo not drawn)
T/C (dose: 44.0 mg/kg/injection, schedule: Q01DX009 (ip), vehicle: saline): 126 % of control | T/C (dose: 66.0 mg/kg/injection, schedule: Q01DX009 (ip), vehicle: saline): 128 % of control | T/C [9]: 133 % of control | T/C (dose: 150.0 mg/kg/injection, schedule: Q01DX009 (ip), vehicle: saline): 137 % of control

CC1=[N+]([O-])[N+]([O-])=C(C)C1=O
survivor count (dose: 25.0 mg/kg/injection, schedule: Q01DX009 (ip), vehicle: Klucel (hydroxypropylcellulose) (HPC)): 1 of 6

Cc1ccc(-c2c3c(c(-c4ccc(C)cc4)c(-c4ccccc4)c2-c2ccccc2)-c2ccccc2C3)cc1
survivor count [1]: 6 of 6 | survivor count [2]: 6 of 6

CNc1ccc(N=Nc2ccc3ncccc3c2)cc1
survivor count [7]: 6 of 6 | survivor count [8]: 4 of 6 | survivor count [1]: 0 of 6

COC(=O)C1=C(C(=O)OC)SC(=C2C3=C(SC(C(=O)OC)=C(C(=O)OC)S3)c3ccccc32)S1
survivor count [4]: 6 of 6

O/N=C\c1ccccc1P(c1ccccc1/C=N\O)c1ccccc1/C=N\O
survivor count [11]: 6 of 6
